From patent publication US5736120 (dated 1998)

Assays:
[1] = general procedure: Fmoc solid-phase peptide synthesis; Fmoc-Arg-HMP resin; dicyclohexylcarbodiimide/hydroxybenzotriazole; settings: whole synthesis, scale of the general procedure 0.2-0.3 mmole
[2] = general procedure: Fmoc solid-phase peptide synthesis; preloaded Fmoc-Met-Rink amide resin; Rink amide resin for C-terminus amides; dicyclohexylcarbodiimide/hydroxybenzotriazole; settings: whole synthesis, scale of the general procedure 0.2-0.3 mmole

Substance | final purity (method not given) [1] [%] | final purity (method not given) [2] [%]
Compound 2-Tyr-Phe-Lys-Ala-Cha-Cha-Leu-D-Ala-Arg-OH | ≥99 | –
DTPA-Lys-Pro-Lys-Pro-Gln-Gln-Phe-Phe-Gly-Leu-Met-NH2 | – | ≥99
